PubChem BioAssay AID1259323 | Peter MacCallum Cancer Centre, 2017

Purpose: 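Kinases required for PAR2 signalling to open the TRPV4 channel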 (primary screen)
Cell system: human HEK293 cells stably carrying inducible TRPV4
Reagents: siRNA pool against human genes
Treatment: PAR2 activation; agonist identity and dose not given
Measured: 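Signal of a calcium dye in live cells following PAR2 activation, plateau and early peak normalised to mock transfection on each plate, mean of duplicate plates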
Reading the numbers: TRPV4 plateau calcium, % of mock: higher = stronger sustained TRPV4 calcium entry than mock; PAR2 peak calcium, % of mock: higher = stronger early PAR2 calcium response than mock
Call rule: 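Active if plateau calcium is under 90% of mock and early peak calcium stays over 79% of mock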
Here is a random part of 715 reagents. Over the whole deposit, 91 (13%) are marked active. 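Active pools lower the sustained TRPV4 phase but spare the early PAR2 peak; PAR2 agonist and dose are not stated; pools repeat across wells.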 Unmarked entries are inactive. A reagent listed more than once was tested more than once; the source does not tell the runs apart. The record does not give: the amount of reagent, the time to read-out.

Gene	TRPV4 plateau calcium, % of mock	PAR2 peak calcium, % of mock
SIK3	86.2 (active)	93.4
CDKN1A	86.6 (active)	88.8
TEX14	90.4	87.4
HK2	82.3 (active)	91
PRKD1	106	98
MASTL	116	102
EXOSC10	95	95.9
PRP4K	99.3	98.4
VRK2	90.8	91.8
LIMK2	121	114
PGK1	108	104
PDGFRB	91.7	87.4
LRRK2	104	102
MAP2K2	107	104
OXSR1	109	103
NEK6	119	108
NME6	87.4 (active)	95.8
BRAF	96.1	92.7
GRK7	92.7	93.4
RPS6KB2	91	87
STRADB	94.8	103
BMPR2	106	108
GRK6	106	89
KSR2	122	104
PRKAR2A	105	102
PHKB	100	103
UCK2	104	91.5
MAPK10	109	102
TPD52L3	95.8	96.2
PEAK1	103	102
PHKA2	96.9	92.1
MAPK6	107	98.3
PRAG1	109	104
RIPK1	99.5	93
STK24	110	111
ULK1	94.4	96.8
MAP4K1	104	103
STK32B	86.4 (active)	93.4
SHPK	89.9 (active)	90.4
STK26	99.4	101
EPHB4	103	102
EPHA10	96.6	98.6
AK4	106	100
CDKN1B	96.2	98.9
IKBKB	93.1	93.9
ITK	107	95.7
CKM	88.7 (active)	96.9
TSSK1B	90.4	81.7
TSSK1B	98.9	90.8
EIF2AK1	97.8	97.6
TTBK1	109	102
DYRK4	102	105
AK5	104	107
IRAK1	99.6	97.2
PAK2	109	103
TJP2	107	110
PRKAG3	91.2	90.4
INSR	102	102
CSNK2B	104	96.5
SMG1	89.6 (active)	95.8
CDK19	96.7	93.8
TLK2	105	102
CSNK1D	90.3	89
DUSP21	102	95.4
STK33	117	104
VRK1	105	106
WEE1	92.1	83.3
EPHA6	95.3	93.3
CDK17	100	102
AKT2	92.5	93.1
FGFRL1	115	105
CSNK1E	87.8 (active)	92.3
CDK9	94.3	98.4
RET	99.1	101
STK3	112	99.6
HUNK	88.3 (active)	87.8
CDK14	118	104
ULK3	95.1	101
KIT	98.3	101
LMTK2	98.2	96.2
PDGFRL	102	105
EFNA5	113	106
MAPK9	85.6 (active)	89.7
PDGFRA	114	107

A stretch from the list above:
Gene	TRPV4 plateau calcium, % of mock	PAR2 peak calcium, % of mock
BRAF	96.1	92.7
GRK7	92.7	93.4
RPS6KB2	91	87
STRADB	94.8	103
BMPR2	106	108
GRK6	106	89
KSR2	122	104
PRKAR2A	105	102
PHKB	100	103
UCK2	104	91.5
MAPK10	109	102
